In patent US20160354479A1 (ESBATECH AN ALCON BIOMEDICAL RESEARCH UNIT, published 2016):
These are yes or no findings as the source states them, for the method shown. Some entries that bind do so weakly or less than the wild type.

Protein sequences, listed by entry. Tags and fused reporters are not part of them. Residues count along the entry.
UniProt P01375, residues 77-233: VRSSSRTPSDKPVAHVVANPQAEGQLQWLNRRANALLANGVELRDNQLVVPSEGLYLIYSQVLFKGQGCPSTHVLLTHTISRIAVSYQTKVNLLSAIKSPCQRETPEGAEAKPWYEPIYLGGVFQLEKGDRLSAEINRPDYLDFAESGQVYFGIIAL

B1: ESBA105 (scFv)
scFv: MADIVMTQSPSSLSASVGDRVTLTCTASQSVSNDVVWYQQRPGKAPKLLIYSAFNRYTGVPSRFSGRGYGTDFTLTISSLQPEDVAVYYCQQDYNSPRTFGQGTKLEVKRGGGGSGGGGSGGGGSSGGGSQVQLVQSGAEVKKPGASVKVSCTASGYTFTHYGMNWVRQAPGKGLEWMGWINTYTGEPTYADKFKDRFTFSLETSASTVYMELTSLTSDDTAVYYCARERGDAMDYWGQGTLVTVSS
notes: Untreated scFv (VL-linker-VH), made in E. coli; also called ESBA105 Normal linker; naked ESBA105
B2: reduced ESBA105 (scFv)
scFv: MADIVMTQSPSSLSASVGDRVTLTCTASQSVSNDVVWYQQRPGKAPKLLIYSAFNRYTGVPSRFSGRGYGTDFTLTISSLQPEDVAVYYCQQDYNSPRTFGQGTKLEVKRGGGGSGGGGSGGGGSSGGGSQVQLVQSGAEVKKPGASVKVSCTASGYTFTHYGMNWVRQAPGKGLEWMGWINTYTGEPTYADKFKDRFTFSLETSASTVYMELTSLTSDDTAVYYCARERGDAMDYWGQGTLVTVSS
modifications: disulfide bonds reduced with 20 mM DTT
B3: Lys pegylated ESBA105 (scFv)
scFv: MADIVMTQSPSSLSASVGDRVTLTCTASQSVSNDVVWYQQRPGKAPKLLIYSAFNRYTGVPSRFSGRGYGTDFTLTISSLQPEDVAVYYCQQDYNSPRTFGQGTKLEVKRGGGGSGGGGSGGGGSSGGGSQVQLVQSGAEVKKPGASVKVSCTASGYTFTHYGMNWVRQAPGKGLEWMGWINTYTGEPTYADKFKDRFTFSLETSASTVYMELTSLTSDDTAVYYCARERGDAMDYWGQGTLVTVSS
modifications: primary amines (lysine residues) PEGylated with PEG-NHS; positions not given

Tests used:
[1] = biological target: T1, Human TNF alpha (human, UniProt P01375 77-233); experiment: direct ELISA on coated human TNF alpha, detection with biotinylated rabbit anti-ESBA105 antibody and streptavidin poly-HRP, OD 450 nm
T1 construct: Coated on the ELISA plate
Method: Binding of ESBA105 and its derivatives was assessed by a direct ELISA. Human TNF alpha (PeproTech EC Ltd) was coated on a 96-well microtitre plate and then blocked using BSA (bovine serum albumin). ESBA105 and ESBA105 derivates were tested at concentrations of 50 nM, 12.5 nM, 3.13 nM, 1.56 nM, 0.78 nM, 0.39 nM, 0.20 nM, 0.10 nM and 0.05 nM. Binding of ESBA105 and its derivatives to human TNF alpha was visualized by the subsequent addition of a biotinylated rabbit polyclonal anti-ESBA105 antibody (AK3A, generated at ESBATech), streptavidin Poly HRP and a chromogenic substrate (POD). The product of this reaction was detected by measurement of the optical densitiy (OD) at […] using a spectrophotometer. Data were analyzed using a 4-parameter logistic curve fit, and EC₅₀ values were calculated from the dose-response curves of the scFvs.

[2] = biological target: T1, Human TNF alpha; experiment: direct ELISA, human TNF alpha coated

| Binder | binding [1] | binding [2] |
| --- | --- | --- |
| B1 | binds | – |
| B2 | – | binds |
| B3 | – | binds |
